Counter-ions that a name gives are not always drawn. The list shows a part of the results. The calls rarely recur for the same compound in another form.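 In K562 cells expressing nanoluciferase-fused kinases, luminescence was recorded at 4 h intervals between 2 and 18 h, normalized as percent of control with DMSO at 100% and a positive control at 0%. A significant (2 sigma) signal drop marks a time point as decreased. The authors' rule for a hit is not shown and takes in more than the number of time points.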

Sequences of proteins named here, by UniProt entry; tags and fusion partners are left off. A change or cut given only in a name is not applied to a line headed by its entry.
UniProt Q15208: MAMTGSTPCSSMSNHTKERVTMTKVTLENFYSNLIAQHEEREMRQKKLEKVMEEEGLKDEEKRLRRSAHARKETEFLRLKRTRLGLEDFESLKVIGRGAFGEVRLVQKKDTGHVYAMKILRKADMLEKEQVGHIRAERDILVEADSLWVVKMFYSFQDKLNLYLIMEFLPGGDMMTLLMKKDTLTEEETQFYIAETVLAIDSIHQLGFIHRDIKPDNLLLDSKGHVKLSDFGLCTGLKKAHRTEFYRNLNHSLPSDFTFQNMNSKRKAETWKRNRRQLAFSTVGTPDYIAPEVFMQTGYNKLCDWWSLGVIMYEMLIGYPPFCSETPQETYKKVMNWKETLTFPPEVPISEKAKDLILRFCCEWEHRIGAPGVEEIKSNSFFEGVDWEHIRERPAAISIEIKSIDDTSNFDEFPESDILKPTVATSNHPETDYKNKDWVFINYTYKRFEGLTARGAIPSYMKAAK
UniProt P42680: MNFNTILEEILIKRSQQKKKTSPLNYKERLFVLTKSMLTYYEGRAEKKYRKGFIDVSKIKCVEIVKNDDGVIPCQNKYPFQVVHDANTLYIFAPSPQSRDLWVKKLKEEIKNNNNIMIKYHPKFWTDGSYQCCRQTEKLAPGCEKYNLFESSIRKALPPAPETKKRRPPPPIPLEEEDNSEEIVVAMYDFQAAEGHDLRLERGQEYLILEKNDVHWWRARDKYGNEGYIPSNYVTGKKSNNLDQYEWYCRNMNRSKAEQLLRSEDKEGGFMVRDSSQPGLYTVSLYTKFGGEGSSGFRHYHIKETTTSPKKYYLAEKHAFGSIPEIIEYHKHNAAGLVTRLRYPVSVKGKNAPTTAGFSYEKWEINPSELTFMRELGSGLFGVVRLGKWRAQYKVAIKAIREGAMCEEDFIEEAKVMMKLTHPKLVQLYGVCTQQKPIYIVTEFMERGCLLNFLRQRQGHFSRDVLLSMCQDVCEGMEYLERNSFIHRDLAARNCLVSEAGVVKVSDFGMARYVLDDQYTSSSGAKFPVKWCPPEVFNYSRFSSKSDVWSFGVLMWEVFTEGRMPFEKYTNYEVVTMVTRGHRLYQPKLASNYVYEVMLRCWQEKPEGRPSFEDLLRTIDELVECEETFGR
UniProt P29597: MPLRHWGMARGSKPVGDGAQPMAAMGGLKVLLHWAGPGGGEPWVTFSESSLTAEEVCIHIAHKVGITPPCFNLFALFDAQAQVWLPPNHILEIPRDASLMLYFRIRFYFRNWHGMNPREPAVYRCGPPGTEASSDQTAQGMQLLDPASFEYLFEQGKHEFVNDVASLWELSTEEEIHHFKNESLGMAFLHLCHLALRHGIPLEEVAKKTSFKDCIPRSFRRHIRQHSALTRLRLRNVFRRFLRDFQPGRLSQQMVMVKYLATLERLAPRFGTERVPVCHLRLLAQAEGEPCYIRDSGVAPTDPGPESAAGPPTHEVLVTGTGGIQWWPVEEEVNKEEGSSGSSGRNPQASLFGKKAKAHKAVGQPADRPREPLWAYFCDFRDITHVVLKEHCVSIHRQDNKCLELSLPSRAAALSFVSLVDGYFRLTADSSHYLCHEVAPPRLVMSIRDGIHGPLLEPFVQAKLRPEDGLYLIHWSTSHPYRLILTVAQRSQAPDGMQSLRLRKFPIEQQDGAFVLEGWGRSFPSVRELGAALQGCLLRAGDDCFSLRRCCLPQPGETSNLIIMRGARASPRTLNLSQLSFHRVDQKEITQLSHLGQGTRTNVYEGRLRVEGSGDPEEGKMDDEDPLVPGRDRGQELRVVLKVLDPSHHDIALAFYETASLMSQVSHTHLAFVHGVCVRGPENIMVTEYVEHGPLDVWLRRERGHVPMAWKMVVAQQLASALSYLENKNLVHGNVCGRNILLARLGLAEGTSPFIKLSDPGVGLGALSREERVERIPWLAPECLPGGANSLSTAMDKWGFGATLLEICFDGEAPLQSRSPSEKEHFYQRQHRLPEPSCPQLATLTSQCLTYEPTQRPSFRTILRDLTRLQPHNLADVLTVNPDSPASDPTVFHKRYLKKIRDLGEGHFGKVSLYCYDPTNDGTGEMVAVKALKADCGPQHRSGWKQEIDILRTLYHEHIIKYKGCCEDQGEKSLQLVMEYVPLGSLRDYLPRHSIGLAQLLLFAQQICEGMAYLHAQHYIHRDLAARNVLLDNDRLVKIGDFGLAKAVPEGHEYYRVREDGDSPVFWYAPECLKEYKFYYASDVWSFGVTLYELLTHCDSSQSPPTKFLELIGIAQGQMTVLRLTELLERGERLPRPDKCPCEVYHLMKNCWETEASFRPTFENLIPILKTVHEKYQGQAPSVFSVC
UniProt Q6PHR2: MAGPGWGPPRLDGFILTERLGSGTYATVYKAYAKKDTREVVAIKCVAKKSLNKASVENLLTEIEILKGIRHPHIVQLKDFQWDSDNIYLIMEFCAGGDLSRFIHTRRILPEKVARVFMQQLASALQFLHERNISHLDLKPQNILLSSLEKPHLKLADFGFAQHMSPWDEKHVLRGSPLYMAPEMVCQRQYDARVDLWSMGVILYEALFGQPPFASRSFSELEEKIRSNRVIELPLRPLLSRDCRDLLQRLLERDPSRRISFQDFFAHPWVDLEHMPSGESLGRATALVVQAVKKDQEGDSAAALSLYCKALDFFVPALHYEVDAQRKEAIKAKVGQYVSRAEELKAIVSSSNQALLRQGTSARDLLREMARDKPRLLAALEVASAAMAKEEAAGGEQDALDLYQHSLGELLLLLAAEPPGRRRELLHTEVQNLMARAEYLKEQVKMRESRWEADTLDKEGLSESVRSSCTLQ
UniProt P07947, whole entry, looked up: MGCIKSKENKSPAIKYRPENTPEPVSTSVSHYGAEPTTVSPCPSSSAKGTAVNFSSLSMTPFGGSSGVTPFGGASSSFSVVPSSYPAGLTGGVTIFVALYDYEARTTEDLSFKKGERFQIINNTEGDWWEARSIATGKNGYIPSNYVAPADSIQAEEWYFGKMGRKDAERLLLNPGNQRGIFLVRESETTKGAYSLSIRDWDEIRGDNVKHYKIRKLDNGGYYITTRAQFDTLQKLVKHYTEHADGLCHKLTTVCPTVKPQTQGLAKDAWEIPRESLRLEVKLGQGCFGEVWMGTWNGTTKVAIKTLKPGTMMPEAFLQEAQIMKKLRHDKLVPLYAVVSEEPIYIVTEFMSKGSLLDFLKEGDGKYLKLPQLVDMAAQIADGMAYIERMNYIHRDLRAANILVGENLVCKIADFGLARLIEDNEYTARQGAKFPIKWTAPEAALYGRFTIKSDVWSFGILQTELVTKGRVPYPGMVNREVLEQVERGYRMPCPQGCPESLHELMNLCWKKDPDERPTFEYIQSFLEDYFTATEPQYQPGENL
UniProt P43403: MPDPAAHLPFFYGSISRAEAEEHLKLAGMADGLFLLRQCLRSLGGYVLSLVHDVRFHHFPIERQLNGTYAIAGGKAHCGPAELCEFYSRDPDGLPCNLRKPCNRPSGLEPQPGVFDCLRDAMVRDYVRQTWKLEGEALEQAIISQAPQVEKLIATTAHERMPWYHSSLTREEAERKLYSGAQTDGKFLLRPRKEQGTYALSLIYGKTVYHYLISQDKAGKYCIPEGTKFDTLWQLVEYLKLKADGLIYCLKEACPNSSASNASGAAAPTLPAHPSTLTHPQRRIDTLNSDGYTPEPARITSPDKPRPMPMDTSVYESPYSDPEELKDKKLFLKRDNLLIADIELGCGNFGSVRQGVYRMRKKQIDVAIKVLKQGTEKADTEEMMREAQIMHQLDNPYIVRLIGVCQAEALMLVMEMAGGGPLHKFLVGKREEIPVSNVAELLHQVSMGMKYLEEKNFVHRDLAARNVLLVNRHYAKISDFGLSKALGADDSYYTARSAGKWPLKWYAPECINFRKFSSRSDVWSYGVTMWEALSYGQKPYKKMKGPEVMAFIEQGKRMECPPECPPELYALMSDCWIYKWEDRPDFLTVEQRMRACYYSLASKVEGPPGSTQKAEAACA
UniProt P00519, whole entry: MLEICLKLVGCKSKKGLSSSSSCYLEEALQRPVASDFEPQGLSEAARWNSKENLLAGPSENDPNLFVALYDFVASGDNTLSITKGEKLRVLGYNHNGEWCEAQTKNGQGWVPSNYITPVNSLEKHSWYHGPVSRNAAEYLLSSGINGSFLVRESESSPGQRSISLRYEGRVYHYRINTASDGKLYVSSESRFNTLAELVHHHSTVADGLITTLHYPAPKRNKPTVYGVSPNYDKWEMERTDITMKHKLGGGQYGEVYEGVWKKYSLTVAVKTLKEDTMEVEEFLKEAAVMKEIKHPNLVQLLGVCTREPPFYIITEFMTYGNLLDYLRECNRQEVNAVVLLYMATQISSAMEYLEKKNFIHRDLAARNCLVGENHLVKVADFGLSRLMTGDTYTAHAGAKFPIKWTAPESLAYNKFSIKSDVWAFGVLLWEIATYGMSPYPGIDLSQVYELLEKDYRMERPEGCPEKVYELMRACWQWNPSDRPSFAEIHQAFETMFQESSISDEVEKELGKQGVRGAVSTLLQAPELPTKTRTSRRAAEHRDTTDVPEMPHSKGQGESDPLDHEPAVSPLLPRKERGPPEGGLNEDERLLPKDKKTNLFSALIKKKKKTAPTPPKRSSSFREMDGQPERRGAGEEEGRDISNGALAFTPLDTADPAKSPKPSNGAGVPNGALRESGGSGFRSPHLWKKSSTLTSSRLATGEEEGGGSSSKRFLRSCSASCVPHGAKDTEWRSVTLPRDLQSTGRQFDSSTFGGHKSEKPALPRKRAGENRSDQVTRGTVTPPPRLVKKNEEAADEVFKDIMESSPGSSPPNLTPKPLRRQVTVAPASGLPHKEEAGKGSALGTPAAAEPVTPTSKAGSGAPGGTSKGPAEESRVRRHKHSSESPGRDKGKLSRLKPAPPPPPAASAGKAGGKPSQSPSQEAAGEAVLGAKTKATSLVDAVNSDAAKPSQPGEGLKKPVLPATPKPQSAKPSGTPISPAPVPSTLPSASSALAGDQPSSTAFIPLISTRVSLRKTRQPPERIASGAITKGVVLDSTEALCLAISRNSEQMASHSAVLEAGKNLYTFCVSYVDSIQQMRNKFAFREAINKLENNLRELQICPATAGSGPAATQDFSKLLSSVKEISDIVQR
UniProt P31749: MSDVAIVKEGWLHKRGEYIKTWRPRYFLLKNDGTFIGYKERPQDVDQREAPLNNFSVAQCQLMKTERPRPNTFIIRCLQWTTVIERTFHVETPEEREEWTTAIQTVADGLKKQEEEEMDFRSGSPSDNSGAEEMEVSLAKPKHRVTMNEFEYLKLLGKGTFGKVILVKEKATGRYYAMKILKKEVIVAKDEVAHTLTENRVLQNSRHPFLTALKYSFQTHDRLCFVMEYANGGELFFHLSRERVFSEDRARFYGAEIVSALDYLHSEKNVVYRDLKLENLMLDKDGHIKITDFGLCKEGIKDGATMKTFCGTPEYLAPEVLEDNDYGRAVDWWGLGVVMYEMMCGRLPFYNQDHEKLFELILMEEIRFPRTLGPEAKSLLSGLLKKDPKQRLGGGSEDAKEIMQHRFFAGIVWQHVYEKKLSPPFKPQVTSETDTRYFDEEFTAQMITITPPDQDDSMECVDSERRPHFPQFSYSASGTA

What all share (conditions): K562; 2-18 h
Experiment [1] addresses STK38 (UniProt Q15208). Briefly: kinase-Nluc reporter destabilization hit call (1 = scored as downregulated) (binary); higher = compound decreases kinase abundance.
Experiment [2] has as its target SYK (UniProt P43405). The description is as above.
Experiment [3] has as its target TEC (UniProt P42680). Described as above.
The target of experiment [4] is TYK2 (UniProt P29597). Described as above.
In experiment [5] the target is ULK3 (UniProt Q6PHR2). Described as above.
Experiment [6] deals with YES1 (UniProt P07947). The description is as above.
Experiment [7] deals with ZAK (UniProt Q9NYL2). The experiment is described as above.
Experiment [8] has as its target ZAP70 (UniProt P43403). Described as above.
The target of experiment [9] is ABL1 (UniProt P00519). Kind of experiment: number of time points (of 5) at which kinase-Nluc abundance scored as decreased, DMSO-normalised (count); higher = more persistent destabilization.
For experiment [10], the target named is AKT1 (UniProt P31749). The description is as above.

As to `NS(=O)(=O)c1ccc(N2N=C(c3ccccc3)CC2c2ccccc2)cc1` (stereo not given) (10 µM), the “kinase-Nluc reporter destabilization hit call” value in [1], in [2], in [3], in experiment [4], in [5] and in experiment [6] was inactive: 0 throughout. Moreover, the “kinase-Nluc reporter destabilization hit call” value in experiment [7] and in experiment [8] was inactive: 0 throughout. Moreover, the figures for the “number of time points” value in experiment [9] and in [10] were 1 and 0, respectively.
As for `CN1CCN(CCCNc2ncc(Cl)c(-c3cc4c(C(=O)NC5CC5)cccc4s3)n2)CC1` (10 µM), the “kinase-Nluc reporter destabilization hit call” value in experiment [1], in [2], in experiment [3], in experiment [4], in experiment [5] and in [6] was inactive: 0 each time. In addition, the “kinase-Nluc reporter destabilization hit call” value in experiment [7] and in [8] was inactive: 0 each time. In addition, the “number of time points” value in [9] and in experiment [10] was 0 in each case.
In the case of `CCOc1c([C@H](C)n2nc(C)c3c(N)ncnc32)cc(Cl)c(F)c1[C@@H]1CNC(=O)C1` [Parsaclisib (hydrochloride)] (10 µM), the “kinase-Nluc reporter destabilization hit call” value in [1], in experiment [2], in experiment [3], in experiment [4], in experiment [5] and in experiment [6] was inactive: 0 throughout. The “kinase-Nluc reporter destabilization hit call” value in experiment [7] and in experiment [8] was inactive: 0 in each case. Besides, the “number of time points” value in experiment [9] and in [10] was 0 throughout.
As for `CC1(N)CCN(c2cnc3c(-c4cccc(Cl)c4Cl)[nH]nc3n2)CC1` (2.5 µM), the “kinase-Nluc reporter destabilization hit call” value in experiment [1], in experiment [2], in [3], in [4], in [5] and in experiment [6] was inactive: 0 throughout. In addition, the “kinase-Nluc reporter destabilization hit call” value in experiment [7] and in experiment [8] was inactive: 0 each time. The “number of time points” value in experiment [9] and in experiment [10] was 0 in each case.
`CCc1ccc(C(=O)COc2ccc(CC3SC(=O)NC3=O)cc2)nc1` (stereo not given) (10 µM): the “kinase-Nluc reporter destabilization hit call” value in experiment [1], in experiment [2], in experiment [3], in experiment [4], in [5] and in [6] was inactive: 0 each time. In addition, the “kinase-Nluc reporter destabilization hit call” value in experiment [7] and in experiment [8] was inactive: 0 in each case. Also, the “number of time points” value in [9] and in experiment [10] was 0 each time.
On to `COC(=O)N[C@@H](C)CNc1nccc(-c2cn(C(C)C)nc2-c2cc(Cl)cc(NS(C)(=O)=O)c2F)n1` [Encorafenib] (10 µM), for which the “kinase-Nluc reporter destabilization hit call” value in experiment [1], in experiment [2], in experiment [3], in experiment [4], in experiment [5] and in experiment [6] was inactive: 0 in each case. For the same molecule, the “kinase-Nluc reporter destabilization hit call” value in [7] and in [8] was inactive: 0 in each case. Also, the “number of time points” value in experiment [9] and in experiment [10] was 0 throughout.
Turning to `O=C1NC(=O)C(c2cnc3ccccn23)=C1c1cn2c3c(cc(F)cc13)CN(C(=O)N1CCCCC1)CC2` (2.5 µM), the “kinase-Nluc reporter destabilization hit call” value in [1], in experiment [2], in [3], in experiment [4], in experiment [5] and in [6] was inactive: 0 throughout. In addition, the “kinase-Nluc reporter destabilization hit call” value in experiment [7] and in experiment [8] was inactive: 0 each time. The “number of time points” value in experiment [9] and in experiment [10] was 0 throughout.
For the molecule `C=CS(=O)(=O)c1ccc(Nc2nc(OCC3CCCCC3)c3[nH]cnc3n2)cc1` (2.5 µM), the “kinase-Nluc reporter destabilization hit call” value in [1], in [2], in experiment [3], in [4], in [5] and in experiment [6] was inactive: 0 each time. Besides, the “kinase-Nluc reporter destabilization hit call” value in experiment [7] and in [8] was inactive: 0 in each case. Besides, the “number of time points” value in [9] and in [10] was 0 in each case.
`C=CC(=O)N1CCC[C@@H](n2nc(C(=O)Nc3ccc(CC(=O)N(C)C)c(C)c3C)c3c(N)ncnc32)C1` (10 µM): the “kinase-Nluc reporter destabilization hit call” value in experiment [1], in experiment [2], in [3], in experiment [4], in experiment [5] and in experiment [6] was inactive: 0 throughout. In addition, the “kinase-Nluc reporter destabilization hit call” value in experiment [7] and in experiment [8] was inactive: 0 throughout. Also, the “number of time points” value in experiment [9] and in experiment [10] was 0 each time.
With `COC(=O)[C@@]1(C)CC[C@]2(C(=O)O)CC[C@]3(C)C(=CC[C@@H]4[C@@]5(C)C[C@H](O)[C@H](O[C@@H]6OC[C@@H](O[C@@H]7O[C@H](CO)[C@@H](O)[C@H](O)[C@H]7O)[C@H](O)[C@H]6O)[C@@](C)(CO)[C@@H]5CC[C@]43C)[C@@H]2C1` [Esculentoside A] (10 µM), the “kinase-Nluc reporter destabilization hit call” value in experiment [1], in experiment [2], in experiment [3], in experiment [4], in experiment [5] and in [6] was inactive: 0 throughout. Also, the “kinase-Nluc reporter destabilization hit call” value in [7] and in experiment [8] was inactive: 0 throughout. In addition, the “number of time points” value in experiment [9] and in experiment [10] was 0 in each case.
As to `O=C(O)c1cc(O)c2c(c1)[C@@H]([C@H]1c3cc(C(=O)O)cc(O)c3C(=O)c3c(O[C@@H]4O[C@H](CO)[C@@H](O)[C@H](O)[C@H]4O)cccc31)c1cccc(O[C@@H]3O[C@H](CO)[C@@H](O)[C@H](O)[C@H]3O)c1C2=O` [Sennoside B] (2.5 µM), the “kinase-Nluc reporter destabilization hit call” value in experiment [1], in experiment [2], in experiment [3], in experiment [4], in experiment [5] and in [6] was inactive: 0 throughout. The “kinase-Nluc reporter destabilization hit call” value in experiment [7] and in experiment [8] was inactive: 0 in each case. Also, the “number of time points” value in experiment [9] and in experiment [10] was 0 in each case.
`CCn1nc(C2CCN(C(=O)CCO)CC2)nc1-c1cnc(N)c(-c2nnc(C(C)(C)C)o2)n1` (10 µM): the “kinase-Nluc reporter destabilization hit call” value in experiment [1], in [2], in experiment [3], in experiment [4], in [5] and in [6] was inactive: 0 in each case. For the same molecule, the “kinase-Nluc reporter destabilization hit call” value in experiment [7] and in experiment [8] was inactive: 0 each time. Also, the “number of time points” value in [9] and in experiment [10] was 0 throughout.
`Nc1cc(C(F)(F)F)c(-c2nc(N3CCOCC3)nc(N3CCOCC3)n2)cn1` [Bimiralisib] (10 µM): the “kinase-Nluc reporter destabilization hit call” value in [1], in [2], in experiment [3], in experiment [4], in [5] and in experiment [6] was inactive: 0 throughout. Also, the “kinase-Nluc reporter destabilization hit call” value in experiment [7] and in experiment [8] was inactive: 0 each time. The “number of time points” value in [9] amounted to 4; in experiment [10], 0.
`O=c1[nH]ccc2cc(OC3CCNCC3)ccc12` (10 µM): the “kinase-Nluc reporter destabilization hit call” value in experiment [1], in experiment [2], in experiment [3], in [4], in experiment [5] and in [6] was inactive: 0 each time. Besides, the “kinase-Nluc reporter destabilization hit call” value in experiment [7] and in experiment [8] was inactive: 0 in each case. Moreover, the “number of time points” value in [9] and in experiment [10] was 0 each time.
As for `COc1ccc(CNc2nc(N(CCO)CCO)nc3c2ncn3C(C)C)cc1` (2.5 µM), the “kinase-Nluc reporter destabilization hit call” value in experiment [1], in experiment [2], in [3], in experiment [4], in experiment [5] and in [6] was inactive: 0 throughout. In addition, the “kinase-Nluc reporter destabilization hit call” value in experiment [7] and in [8] was inactive: 0 in each case. Moreover, the “number of time points” value in [9] and in experiment [10] was 0 throughout.
